Measurements taken from patent publication US12472193B2, “Methods and compositions for treating and preventing respiratory related diseases and conditions with xylitol-headgroup lipid analogs” (National Jewish Health, priority 2017, dated 2025).
At least one compound was matched to its structure with a doubt left. Some results were stated once for a whole list of compounds, not compound by compound. Some ranges recur; such a range may be that of the whole group of compounds.

The chains behind the UniProt entries cited, without tags or fusion partners. Residues count along the entry.
UniProt Q9QUN7, 25-784: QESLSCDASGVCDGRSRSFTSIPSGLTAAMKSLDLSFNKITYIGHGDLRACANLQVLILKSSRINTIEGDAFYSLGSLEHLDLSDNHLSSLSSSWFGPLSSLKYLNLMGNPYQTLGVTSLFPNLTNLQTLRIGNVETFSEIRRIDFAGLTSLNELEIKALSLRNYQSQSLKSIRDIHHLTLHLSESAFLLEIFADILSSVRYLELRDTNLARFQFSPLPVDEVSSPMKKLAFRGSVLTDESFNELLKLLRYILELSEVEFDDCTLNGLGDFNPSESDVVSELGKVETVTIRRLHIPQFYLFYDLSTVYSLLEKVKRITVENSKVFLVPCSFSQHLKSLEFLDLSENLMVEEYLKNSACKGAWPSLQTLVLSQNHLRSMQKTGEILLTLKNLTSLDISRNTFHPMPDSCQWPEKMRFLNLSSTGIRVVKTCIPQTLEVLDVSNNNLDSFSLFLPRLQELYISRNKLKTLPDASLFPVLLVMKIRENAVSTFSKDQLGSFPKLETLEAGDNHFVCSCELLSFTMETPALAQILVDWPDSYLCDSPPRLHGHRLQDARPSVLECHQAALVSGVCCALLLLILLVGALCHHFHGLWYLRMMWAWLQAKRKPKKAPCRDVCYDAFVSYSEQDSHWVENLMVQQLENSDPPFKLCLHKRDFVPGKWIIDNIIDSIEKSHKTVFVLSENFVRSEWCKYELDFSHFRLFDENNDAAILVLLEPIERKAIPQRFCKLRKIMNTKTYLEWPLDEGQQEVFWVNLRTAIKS
UniProt O60602, 21-858: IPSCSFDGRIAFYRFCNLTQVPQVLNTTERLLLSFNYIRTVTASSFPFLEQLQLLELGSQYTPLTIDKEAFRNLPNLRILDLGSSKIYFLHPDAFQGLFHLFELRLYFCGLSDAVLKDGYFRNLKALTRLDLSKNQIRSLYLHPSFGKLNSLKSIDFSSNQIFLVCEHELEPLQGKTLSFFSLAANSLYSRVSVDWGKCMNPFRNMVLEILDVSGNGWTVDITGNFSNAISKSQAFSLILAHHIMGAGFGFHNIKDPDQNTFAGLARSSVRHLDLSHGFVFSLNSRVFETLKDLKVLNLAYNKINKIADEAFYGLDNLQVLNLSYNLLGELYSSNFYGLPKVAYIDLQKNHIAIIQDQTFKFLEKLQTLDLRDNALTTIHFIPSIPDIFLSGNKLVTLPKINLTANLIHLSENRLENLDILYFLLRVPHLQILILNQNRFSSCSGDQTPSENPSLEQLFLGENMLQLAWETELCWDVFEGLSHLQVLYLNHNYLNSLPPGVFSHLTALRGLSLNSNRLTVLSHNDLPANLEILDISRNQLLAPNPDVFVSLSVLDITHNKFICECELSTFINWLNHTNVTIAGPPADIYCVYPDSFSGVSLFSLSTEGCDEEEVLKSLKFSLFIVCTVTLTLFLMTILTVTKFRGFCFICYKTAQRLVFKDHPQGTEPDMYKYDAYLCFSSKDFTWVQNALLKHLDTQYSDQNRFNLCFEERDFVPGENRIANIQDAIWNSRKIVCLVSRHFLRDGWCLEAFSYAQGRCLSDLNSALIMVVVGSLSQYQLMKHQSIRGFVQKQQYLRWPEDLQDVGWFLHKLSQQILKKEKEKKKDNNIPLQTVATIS

What was measured:
TLR 2/6 = biological target: T1, TLR 2/6 (Mus musculus, UniProt Q9QUN7); experiment: MALP-2-induced TNFα secretion by RAW264.7 cells (TLR 2/6 antagonism); format: cell-based; details: reduction in cytokine secretion vs activating TLR ligand alone
T1 construct: A RAW264.7 cell line was used with the TLR 2/6 agonist, MALP-2; endogenous in cells; host or cells: RAW264.7 (ATCC)

TLR 5 = biological target: T2, TLR 5 (Homo sapiens, UniProt O60602); experiment: Flagellin-induced IL-8 in BEAS2B cells (TLR 5 antagonism); format: cell-based; details: reduction in cytokine secretion vs activating TLR ligand alone
T2 construct: endogenous in cells; host or cells: BEAS2B (ATCC)
Procedure: Human bronchial epithelial cells, BEAS2B, were obtained from ATCC and maintained in bronchial epithelial cell growth medium (BEGM), supplemented with the BulleKit from Lonza in accordance with protocol (M. H. Hudy, S. et al., “Cigarette smoke modulates rhinovirus-induced airway epithelial cell chemokine production.,” Eur. Respir. J., vol. 35, no. 6, pp. 1256-63, June 2010). Cells were cultured at 37 C with 5% carbon dioxide:95% air atmosphere maintained within the incubator. Experiments were conducted in 48-well plates and cells were seated at a density of 5×10^4 per well. After 24 hours, the BEGM medium was replaced with RPMI-1640 medium and incubated for an additional 24 hours. Liposomes were prepared as described above. Each condition for cell stimulation and antagonism was prepared in RPMI medium in a separate tube and consisted of: control (medium alone), TLR agonist, TLR agonist+lipid, and lipid alone. The cells were incubated in […] medium either with or without agonists and antagonists at 37° C. for 48 hours. Subsequently, media were collected, diluted and an enzyme-linked immunosorbent assay (ELISA) was performed to quantify IL-8 release by cells.
TLR 5 is an extracellular member of the TLR family. It is the only TLR that detects flagellin, a ligand comprised of only protein (T. Kawai and S. Akira, “The role of pattern-recognition receptors in innate immunity: update on Toll-like receptors,” Nat. Publ. Gr., vol. 11, 2010). To address whether xylitol analogs antagonize TLR activation due to disruption or destruction of all membrane signaling, PX lipids were assessed at the highest concentration used in experiments reported in this example in human bronchial epithelial cells, BEAS2B, for antagonism of flagellin activation of TLR 5. The cytokine, IL-8, was quantified as an output of TLR 5 activation.

RSV = experiment: Quantitative RSV plaque assay in HEp2 cells; format: cell-based, human RSV A2 strain; details: for reduction of RSV plaque formation: 50 μg/mL lipid; for reduction of RSV viral infection by a factor of: 50 μg/ml lipid, 10^4 infectious virus/ml
Procedure: Viral stocks were propagated in HEp2 cell monolayers using DMEM/Ham's F12 Medium (GIBCO), plus 5% bovine growth serum (Hyclone) with 1× penicillin streptomycin, and virus was purified using methods previously described [M. Numata, H. W. Chu, A. Dakhama, and D. R. Voelker, “Pulmonary surfactant phosphatidylglycerol inhibits respiratory syncytial virus-induced inflammation and infection.,” Proc. Natl. Acad. Sci. U.S.A., vol. 107, no. 1, pp. 320-5, 2010.]. Viral titers and growth were measured by plaque assays [J. L. McKimm-Breschkin, “A simplified plaque assay for respiratory syncytial virus—direct visualization of plaques without immunostaining,” 2004.]. The antiviral activity of xylitol-headgroup lipids was determined by in vitro RSV infection in the presence or absence of lipid and infectious particles were quantified by viral plaque assay. HEp2 cells were plated at a density of 1.8×10^6 per well in a 6 well plate 24 hours prior to infection in order to create a uniform monolayer. Cell monolayers were infected for 2 hours at 37° C. with serial dilutions of RSV alone and RSV in combination with 50 μg/mL of phospholipid. Following the 2-hour period of infection, the inoculum was removed and 3 mL of medium containing 0.3% agarose was added, allowed to solidify and placed in a 37° C. incubator for 6 days. On day 6 the cells were fixed overnight with formalin and then stained with a neutral red stain and viral plaques were quantified visually.
An optimized quantitative plaque assay (described for RSV by J. L. McKimm-Breschkin, “A simplified plaque assay for respiratory syncytial virus-direct visualization of plaques without immunostaining,” 2004) was applied to survey the ability of PX lipids to inhibit RSV infection. The human epithelial cell line, HEp2, was seeded at a density of 1.8×10^6 per well in a 6-well plate 24 hours in advance of infection. Reaction conditions for infection took place in serum-free medium and were combined before addition to cells. A standard dilution of virus alone was prepared and 50 μg/mL phospholipid in combination with RSV was also prepared. Cells were washed with PBS to remove any serum prior to infection and then 500 μL of virus in various combinations with lipids was added to each well and incubated at 37° C. for 2 hours. Plates were rotated every 20 minutes for even distribution of viral infection. After infection, the viral inoculum was removed and medium containing 0.3% agarose was added to each well and allowed to solidify then placed back into the incubator at 37° C. for 6 days. On day 6, cells were fixed overnight then the agarose layer was removed and wells were stained with neutral red and viral plaques counted. POPG is a known inhibitor of RSV infection in vitro and in vivo. […] Ester-linked saturated xylitol lipids composed the moderately effective antivirals. The sole xylitol analog that was determined ineffective was saturated and ether-linked.

CCCCCC=CCC=CCCCCCCCC(=O)OCC(COP(=O)(O)OCC(O)C(O)C(O)CO)OC(=O)CCCCCCCC=CCC=CCCCCC (mixture of isomers) [18:2 DLPX, sn-1-linoleoyl, sn-2-linoleoyl sn-3 glycerol phosphoxylitol]
TLR2/6 antagonist activity (TLR 2/6): −
TLR5 antagonist activity (TLR 5): −
reduction of RSV plaque formation (RSV): ≥ 3 log units
reduction of RSV viral infection by a factor of (RSV): 10^3-10^4

CCCCCCCC/C=C\CCCCCCCC(=O)O[C@H](COC(=O)CCCCCCCCCCCCCCC)COP(=O)(O)OCC(O)C(O)C(O)CO (stereo partly shown) [POPX, sn-1-palmitoyl, sn-2-oleoyly sn-3 glycerol phosphoxylitol]
TLR2/6 antagonist activity (TLR 2/6): −
TLR5 antagonist activity (TLR 5): −
reduction of RSV plaque formation (RSV): ≥ 3 log units
reduction of RSV viral infection by a factor of (RSV): 10^3-10^4

CCCCCCCCC=CCCCCCCCC(=O)OCC(COP(=O)(O)OCC(O)C(O)C(O)CO)OC(=O)CCCCCCCC=CCCCCCCCC (mixture of isomers) [DOPX, sn-1-oleoyl, sn-2-oleoyl sn-3 glycerol phosphoxylitol]
TLR2/6 antagonist activity (TLR 2/6): −
TLR5 antagonist activity (TLR 5): −
reduction of RSV plaque formation (RSV): ≥ 3 log units
reduction of RSV viral infection by a factor of (RSV): 10^3-10^4

CCCCCCC=CCCCCCCCC(=O)OCC(COP(=O)(O)OCC(O)C(O)C(O)CO)OC(=O)CCCCCCCC=CCCCCCC (mixture of isomers) [16:1 DPPX, sn-1-palmitoleoyl, sn-2-palmitoleoyl sn-3 glycerol phosphoxylitol]
TLR2/6 antagonist activity (TLR 2/6): −
TLR5 antagonist activity (TLR 5): −
reduction of RSV plaque formation (RSV): ≥ 3 log units
reduction of RSV viral infection by a factor of (RSV): 10^3-10^4
